Test results from PMC7765622, “The Cardioprotective PKA-Mediated Hsp20 Phosphorylation Modulates Protein Associations Regulating Cytoskeletal Dynamics” (International Journal of Molecular Sciences, 2020).
Results are given in words; binding and its absence hold for the method and conditions named. Binding seen in cells or lysates may run through a third protein. Binding can be weak; no strength is given.

Biological target: 14-3-3, endogenous in mouse cardiac muscle (mouse (endogenous in cardiac extracts))
Assay: co-IP; mouse cardiac extracts, mouse monoclonal 14-3-3 antibody or control IgG with protein-A/G agarose, overnight 4 °C; also with extracts phosphorylated in vitro with PKA or left untreated

- binding: binds
B1: Hsp20 (small heat shock protein 20), endogenous in mouse cardiac muscle (protein, UniProt Q5EBG6 1-162)
chain: MEIPVPVQPSWLRRASAPLPGFSAPGRLFDQRFGEGLLEAELASLCPAAIAPYYLRAPSVALPTAQVSTDSGYFSVLLDVKHFLPEEISVKVVDDHVEVHARHEERPDEHGFIAREFHRRYRLPPGVDPAAVTSALSPEGVLSIQATPASAQAQLPSPPAAK
